Measured values from patent US20170015555A1, “LONG-TERM PRESERVATION AND NOVEL APPLICATION OF CHLOROUS ACID AQUEOUS SOLUTION FORMULATION” (priority 2013, published 2017).

Experiment: Deodorizing effect (chemical deodorization, gas detector tube)
Conditions: 400 ppm; for deodorizing effect on amine odor over time: up to 24 hours after spraying
Source text: In order to evaluate tests on deodorizing effects, the present Example examined deodorizing effects by using standards regarding air freshening and deodorization ([II]-2 Method of Testing Deodorizing Efficacy (Chemical Deodorization)) set forth by the Air Fresheners and Deodorizers Conference (http://www.houkou.gr.jp/) as the efficacy testing method, which is adopted by Japan Food Research Laboratories.
Ammonium odor: Ammonium Standard Solution II (Wako Pure Chemical Industries, for testing malodorous substances) Amine odor: methyl mercaptan standard solution (Wako Pure Chemical Industries, for testing malodorous substances) Sulfur odor: hydrogen sulfide (self-made, used hydrogen sulfide that was generated by adding sulfuric acid to zinc sulfide)
Gas detector tube made by GASTEC Corporation Ammonium odor: Detector tube ammonium 3 L made by GASTEC Corporation Amino odor: Detector tube methyl mercaptan 71 made by GASTEC Corporation Sulfur odor: Detector tube hydrogen sulfide 4 LL made by GASTEC Corporation […]
The bags were filled with odorless air. Malodor concentrations were measured over time at room temperature (about 20° C.). (3 points or higher, detection tube method (FIG. 16), measured by an instrument analysis method or olfactory measurement method. When decrease in the blank was observed, the decrease was suitably corrected. When measuring by olfactory measuring method, the airbag spigot was opened for direct sniffing, or gas was transferred to an odor bag while wearing a mask to perform olfactory measurement in an autonomic respiration form. Measured air was not returned to the source).
Next, for amine odor (methyl mercaptan), the residual concentrations were detected and recorded for control (no specimen), 20 ml (cc) of distilled water, sodium hypochlorite (expressed as Na hypochlorite, 400 ppm), and chlorous acid aqueous solution (expressed as CAAS, 400 ppm) prior to spraying and 0 hour, 3 hours, 6 hours, 9 hours, and 24 hours after spraying. […]

For `OCl` [Sodium Hypochlorite, sodium hypochlorite], the “residual methyl mercaptan, corrected value (control = 100)” value (first experiment, 3 hours after spraying) was no more than 10, the “deodorizing effect on amine odor over time” value was “a phenomenon of rising odor can be seen thereafter as time passes” and the “deodorizing effect on amine odor over time” value (listed as Na hypochlorite) was “tendency for amine odor to rise”.
